Measured values as given in patent publication US8497372B2, “Use of substituted quinazoline compounds in treating age-related macular degeneration” (Hutchison Medipharma Enterprises Limited, priority 2008, dated 2013).
Some of these results come from one statement about several compounds together.

Chains of the proteins cited; added tags and fusions are not shown. Residues count along the entry.
UniProt P35968, 834-1162 limits assumed: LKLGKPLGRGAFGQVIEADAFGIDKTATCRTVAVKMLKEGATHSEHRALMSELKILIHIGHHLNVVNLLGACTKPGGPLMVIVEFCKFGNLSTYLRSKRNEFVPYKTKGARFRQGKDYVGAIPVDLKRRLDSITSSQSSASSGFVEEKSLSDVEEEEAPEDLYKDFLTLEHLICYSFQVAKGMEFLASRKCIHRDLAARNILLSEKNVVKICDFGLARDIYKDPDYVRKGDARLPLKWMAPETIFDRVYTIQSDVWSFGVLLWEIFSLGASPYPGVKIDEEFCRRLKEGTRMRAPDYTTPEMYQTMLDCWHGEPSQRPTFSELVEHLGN

Molecular target: T1, KDR catalytic domain (Homo sapiens, UniProt P35968)
T1 construct: was mixed with a KDR catalytic domain (Invitrogen, Cat. PV3660); purchased Invitrogen PV3660
Experiment: Inhibition of KDR kinase activity (Z'-LYTE Tyr1 Peptide assay)
Format: biochemical
Details: Z'-LYTE Tyr1 peptide 2 μM, kinase 0.3 μg/ml

Row | SMILES | Inhibition of the activity of KDR
1 | CNC(=O)c1c(C)oc2cc(Nc3ncnc4cc(OC)c(OC)cc34)ccc12 [Compound 2, 6-(6,7-dimethoxyquinazolin-4-ylamino)-N,2-dimethylbenzofuran-3-carboxamide] | inhibited the activity of KDR
2 | CCN(CC)CCNC(=O)c1c(C)oc2cc(Oc3ncnc4cc(OC)c(OC)cc34)ccc12 [Compound 3, N-(2-(diethylamino)ethyl)-6-(6,7-dimethoxyquinazolin-4-yloxy)-2-methylbenzofuran-3-carboxamide] | inhibited the activity of KDR
3 | COc1cc2ncnc(Oc3ccc4c(C(=O)NC5CC5)c(C)oc4c3)c2cc1OC [Compound 4, N-cyclopropyl-6-(6,7-dimethoxyquinazolin-4-yloxy)-2-methylbenzofuran-3-carboxamide] | inhibited the activity of KDR
4 | CNC(=O)c1c(C)oc2cc(Oc3ncnc4cc(OCCOC)c(OCCOC)cc34)ccc12 [Compound 5, 6-(6,7-bis(2-methoxyethoxy)quinazolin-4-yloxy)-N,2-dimethylbenzofuran-3-carboxamide] | inhibited the activity of KDR
